From publication doi:10.1101/2024.07.24.604958
These are yes or no findings as the source states them, for the method shown. For some assays here: Binding seen in cells or lysates may run through a third protein. Some entries that bind do so weakly or less than the wild type.

T1: full-length TMC1 expressed in HEK 293 cells (mouse) (UniProt Q8R4P5)
T1 sequence: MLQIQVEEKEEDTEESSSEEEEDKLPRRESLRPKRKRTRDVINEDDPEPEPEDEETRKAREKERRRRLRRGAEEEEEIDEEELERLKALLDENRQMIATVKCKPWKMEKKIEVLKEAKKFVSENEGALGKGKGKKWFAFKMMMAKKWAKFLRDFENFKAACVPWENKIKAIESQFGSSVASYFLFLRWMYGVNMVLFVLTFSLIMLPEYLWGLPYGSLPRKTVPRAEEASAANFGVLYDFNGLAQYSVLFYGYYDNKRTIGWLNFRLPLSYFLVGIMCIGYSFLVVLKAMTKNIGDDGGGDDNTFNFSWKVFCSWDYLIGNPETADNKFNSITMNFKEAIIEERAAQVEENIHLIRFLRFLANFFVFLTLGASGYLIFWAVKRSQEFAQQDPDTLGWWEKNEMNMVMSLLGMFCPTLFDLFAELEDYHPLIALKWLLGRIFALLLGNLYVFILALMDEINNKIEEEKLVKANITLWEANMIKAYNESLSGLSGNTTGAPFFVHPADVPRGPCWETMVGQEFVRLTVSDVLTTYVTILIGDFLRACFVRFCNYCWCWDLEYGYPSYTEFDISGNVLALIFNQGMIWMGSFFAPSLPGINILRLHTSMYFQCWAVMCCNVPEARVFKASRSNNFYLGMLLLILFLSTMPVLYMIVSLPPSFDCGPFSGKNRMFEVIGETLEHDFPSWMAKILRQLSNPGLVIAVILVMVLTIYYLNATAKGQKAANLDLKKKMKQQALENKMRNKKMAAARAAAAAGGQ

T2: CIB2 (calcium and integrin-binding protein 2), wild type (mouse) (UniProt Q9Z309)
T2 sequence: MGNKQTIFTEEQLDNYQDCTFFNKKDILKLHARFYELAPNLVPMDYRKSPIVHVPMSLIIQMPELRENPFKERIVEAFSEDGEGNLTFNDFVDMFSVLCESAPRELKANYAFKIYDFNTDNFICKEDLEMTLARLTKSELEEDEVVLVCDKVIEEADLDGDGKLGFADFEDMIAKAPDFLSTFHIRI

B1: CIB2 expressed in HEK 293 cells (protein, UniProt Q9Z309 1-187)
chain: T2 sequence

Tests used:
[1] = target: T1, full-length TMC1 expressed in HEK 293 cells (mouse); assay: co-IP
[2] = target: T2, CIB2 (calcium and integrin-binding protein 2), wild type (mouse); assay: ITC

Binder | binding [1] | binding [2]
B1 | binds | 
KGQKAANLDLKKKMKQQALENKMRNKKMAAARAAAAAGGQ (domain or fragment, UniProt Q8R4P5 718-757) [TMC1 cytosolic region 3 (CR3, amino acids 718-757)] |  | no binding (condition: with 10 mM CaCl2)
